In US20250215080A1 (published 2025):
These are yes or no findings as the source states them, for the method shown. Some results given as binding are weak or reduced against the parent protein; the word gives no strength.

Columns and labels:
[1] = target: TREM2-IgSF-TREM1 stalk chimeric protein expressed in CHO-hDAP12 cells (human) (UniProt Q9NP99); assay: FACS on CHO cells
[2] = target: T1, TREM2 (isoform 3) expressed on HEK293 cells of the plasma membrane protein cell array (human); assay: HEK293 cell array, 2 ug/ml
T1 sequence: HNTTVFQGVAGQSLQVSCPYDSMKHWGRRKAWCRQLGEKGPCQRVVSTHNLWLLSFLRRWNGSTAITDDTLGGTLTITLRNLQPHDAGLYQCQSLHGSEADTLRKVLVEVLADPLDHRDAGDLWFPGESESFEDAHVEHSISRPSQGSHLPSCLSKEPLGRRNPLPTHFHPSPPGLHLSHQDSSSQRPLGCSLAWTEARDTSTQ

B1: MOR044746 (antibody, V domains shown)
VH: QVQLQQSGPGLVKPSQTLSLTCAISGDSVSSSSAAWNWIRQSPSRGLEWLGHIGYRSKWYNEYAVSVKSRITINPDTSKNQFSLQLNSVTPEDTAVYYCARGMYGSVPYKEGYYFDIWGQGTLVTVSS
VL: DIQMTQSPSSLSASVGDRVTITCRASQGISSDLNWYQQKPGKAPKLLIYAASNLQSGVPSRFSGSGSGTDFTLTISSLQPEDFATYYCQQYTDESMTFGQGTKVEIK
notes: light chain 63); Human IgG vector of the campaign: IgG1f LALA; Matured from MOR042493; VH6 k1; also called MOR44746
B1 was tested, and the binding [1] was “binds” and the binding [2] was “binds”.
